Literature values, collected in paper PMC3956856, “Interaction of Kinase-Interaction-Motif Protein Tyrosine Phosphatases with the Mitogen-Activated Protein Kinase ERK2” (PLoS ONE, 2014).

B1: STEP (residues 213-539, mouse) (domain or fragment, UniProt P54830 213-539, looked up)
chain: MGLQERRGSNVSLTLDMCTPGCNEEGFGYLVSPREESAHEYLLSASRVLRAEELHEKALDPFLLQAEFFEIPMNFVDPKEYDIPGLVRKNRYKTILPNPHSRVRLTSPDPEDPLSSYINANYIRGYSGEEKVYIATQGPIVSTVADFWRMVWQERTPIIVMITNIEEMNEKCTEYWPEEQVVHDGVEITVQKVIHTEDYRLRLISLRRGTEERSLKHYWFTSWPDQKTPDRAPPLLHLVREVEEAAQQEGPHCSPIIVHCSAGIGRTGCFIATSICCQQLRREGVVDILKTTCQLRQDRGGMIQTCEQYQFVHHAMSLYEKQLSLQS
notes: STEP (PTPN5, striatal enriched protein tyrosine phosphatase), mouse, residues 213-539 (KIM, KIS and catalytic domain); The results loosely call this construct 'full-length STEP'; the construct is residues 213-539; also called STEP_(213-539); PTPN5; source: final SEC
B2: PTPSL (residues 332-655, human) (domain or fragment, UniProt Q15256 332-655, looked up)
chain: GLQERRGSNVSLTLDMSSLGNIEPFVSIPTPREKVAMEYLQSASRILTRSQLRDVVASSHLLQSEFMEIPMNFVDPKEIDIPRHGTKNRYKTILPNPLSRVCLRPKNVTDSLSTYINANYIRGYSGKEKAFIATQGPMINTVDDFWQMVWQEDSPVIVMITKLKEKNEKCVLYWPEKRGIYGKVEVLVISVNECDNYTIRNLVLKQGSHTQHVKHYWYTSWPDHKTPDSAQPLLQLMLDVEEDRLASQGRGPVVVHCSAGIGRTGCFIATSIGCQQLKEEGVVDALSIVCQLRMDRGGMVQTSEQYEFVHHALCLYESRLSAET
notes: PTPSL/PTPBR7 (PTPRR, PTP STEP-like), human, residues 332-655 (KIM, KIS and catalytic domain); The results loosely call this construct 'full-length PTPSL'; the construct is residues 332-655; also called PTPBR7; PTPRR; source: final SEC
B3: HePTP: HePTP (residues 15–339), hematopoietic protein tyrosine phosphatase (protein, UniProt P35236 15-339, looked up, fragment)
chain: TLSLGAAMTQPPPEKTPAKKHVRLQERRGSNVALMLDVRSLGAVEPICSVNTPREVTLHFLRTAGHPLTRWALQRQPPSPKQLEEEFLKIPSNFVSPEDLDIPGHASKDRYKTILPNPQSRVCLGRAQSQEDGDYINANYIRGYDGKEKVYIATQGPMPNTVSDFWEMVWQEEVSLIVMLTQLREGKEKCVHYWPTEEETYGPFQIRIQDMKECPEYTVRQLTIQYQEERRSVKHILFSAWPDHQTPESAGPLLRLVAEVEESPETAAHPGPIVVHCSAGIGRTGCFIATRIGCQQLKARGEVDILGIVCQLRLDRGGMIQTAEQ

System: p38α
Conditions: resting-state complex, SAXS; ref [14], [15]; cited from earlier work
For B1, the “shape of the complex with p38α (in words)” value (“shape of the complex” for short) is given as “compact”. For B2, the “shape of the complex” value is given as “extended in solution”. For B3, the “shape of the complex” value is given as “extended”.
